Reference: PubChem BioAssay AID504774 (Drosophila RNAi Screening Center, 2011)

Test: 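Knock-downs that shift viability of MMS-exposed cells relative to untreated ones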 (primary screen)
System: Drosophila Kc167 cells
Reagents: long dsRNA against Drosophila genes, about 0.25 µg dsRNA per well
Duration: about 6 days: 3 days knock-down, then 3 days with or without MMS
Treatment: methyl methanesulphonate 0.004% (w/v) for 3 days after knock-down
Detection: 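ATP-dependent luminescence as a measure of live cells in MMS-exposed wells, quantile normalised within each plate, with replicate values also given as a mean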
Reading the numbers: mean viability with MMS and viability with MMS: higher = more surviving cells after MMS
The screen tested about 23,000 reagents; shown is a random part of those that have a named target and a result. 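Values are quantile-normalised luminescence on an arbitrary scale; higher means more cells surviving MMS.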 A plus sign joins genes that one reagent is predicted to hit.

| predicted target | PubChem SID | mean viability with MMS | viability with MMS, replicate 1 | viability with MMS, replicate 2 |
| --- | --- | --- | --- | --- |
| mal (GeneID 33045) | SID104200373 | 3.59e6 | 4.07e6 | 4.09e6 |
| CG11322 (GeneID 33949) | SID104181934 | 3.80e6 | 4.18e6 | 4.28e6 |
| CG11044 (GeneID 37281) | SID104185818 | 3.59e6 | 3.97e6 | 4.15e6 |
| RpL37-2 (GeneID 37669) | SID104184376 | 3.48e6 | 4.05e6 | 3.82e6 |
| CG10600 (GeneID 35142) | SID104181866 | 3.45e6 | 4.04e6 | 3.74e6 |
| Sodh1 (GeneID 40836) | SID104192397 | 3.70e6 | 4.19e6 | 4.21e6 |
| CG13040 (GeneID 39804) | SID104189713 | 3.52e6 | 4.00e6 | 3.97e6 |
| CG5888 (GeneID 34980) | SID104181721 | 3.64e6 | 3.93e6 | 4.37e6 |
| CG12343 (GeneID 36143) | SID104185927 | 3.38e6 | 3.84e6 | 3.82e6 |
| IscU (GeneID 41059) | SID104196364 | 3.05e6 | 3.65e6 | 3.63e6 |
| Osi11 (GeneID 40765) | SID104192074 | 3.44e6 | 3.96e6 | 3.87e6 |
| Uhg2 + snoRNA:Me18S-G1620 + snoRNA:U14:30Ea | SID104180892 | 3.44e6 | 3.99e6 | 3.79e6 |
| Tti1 (GeneID 41189) | SID104194955 | 3.38e6 | 3.93e6 | 3.80e6 |
| CG11600 (GeneID 41555) | SID104194124 | 3.46e6 | 3.96e6 | 3.92e6 |
| ppk8 (GeneID 318213) | SID104197061 | 3.32e6 | 3.78e6 | 3.74e6 |
| CG17712 (GeneID 33356) | SID104180058 | 3.57e6 | 4.09e6 | 4.02e6 |
| eIF2Bepsilon (GeneID 31156) | SID104198561 | 3.32e6 | 3.85e6 | 3.72e6 |
| RpS3A (GeneID 43768) | SID104196960 | 2.89e6 | 3.67e6 | 3.63e6 |
| Mipp2 (GeneID 31544) | SID104198474 | 3.58e6 | 3.89e6 | 4.17e6 |
| Nup50 (GeneID 35784) | SID104186619 | 3.72e6 | 4.23e6 | 4.22e6 |
| Elk (GeneID 37047) | SID104187400 | 3.46e6 | 3.89e6 | 3.95e6 |
| Uch-L5R (GeneID 32173) | SID104199617 | 3.41e6 | 3.85e6 | 3.90e6 |
| mRpL46 (GeneID 38230) | SID104188183 | 3.52e6 | 4.01e6 | 3.96e6 |
| CG9004 (GeneID 38303) | SID104188409 | 3.48e6 | 3.96e6 | 3.95e6 |
| Pef (GeneID 36111) | SID104186487 | 3.59e6 | 4.08e6 | 4.06e6 |
| CG32713 (GeneID 318166) | SID104202130 | 3.52e6 | 3.96e6 | 4.04e6 |
| CG13806 (GeneID 38292) | SID104188133 | 3.51e6 | 4.05e6 | 3.89e6 |
| Vhl (GeneID 53433) | SID104187508 | 3.72e6 | 4.27e6 | 4.20e6 |
| Srg3 (GeneID 39092) | SID104188776 | 3.44e6 | 3.93e6 | 3.88e6 |
| Srg3 (GeneID 39092) | SID104189970 | 3.73e6 | 4.33e6 | 4.05e6 |
| CG3815 (GeneID 31571) | SID104198116 | 3.48e6 | 3.95e6 | 3.83e6 |
| Imp (GeneID 32009) | SID104198653 | 3.50e6 | 4.03e6 | 3.92e6 |
| Imp (GeneID 32009) | SID104200047 | 3.61e6 | 4.47e6 | 3.80e6 |
| mop (GeneID 39610) | SID104190857 | 3.50e6 | 3.97e6 | 3.96e6 |
| Dus1 (GeneID 33190) | SID104180415 | 3.40e6 | 3.86e6 | 3.81e6 |
| CG13738 (GeneID 39541) | SID104189857 | 3.25e6 | 3.62e6 | 3.68e6 |
| CG9284 (retired record) (GeneID 50130) | SID104183691 | 3.43e6 | 3.84e6 | 3.96e6 |
| CG9284 (retired record) (GeneID 50130) | SID104184328 | 3.61e6 | 4.11e6 | 4.12e6 |
| mRpS9 (GeneID 40932) | SID104192437 | 3.79e6 | 4.01e6 | 4.43e6 |
| mRpS9 (GeneID 40932) | SID104195248 | 3.76e6 | 4.07e6 | 3.85e6 |
| Ugt303B1 (GeneID 42775) | SID104194933 | 3.41e6 | 3.79e6 | 3.90e6 |
| CG6830 (GeneID 41408) | SID104195916 | 3.48e6 | 3.99e6 | 3.94e6 |
| CG31522 (GeneID 40567) | SID104191797 | 3.58e6 | 4.05e6 | 4.07e6 |
| Fkbp12 (GeneID 37214) | SID104187217 | 3.64e6 | 4.11e6 | 4.11e6 |
| Skp2 + CG1103 | SID104191952 | 3.56e6 | 3.99e6 | 4.07e6 |
| Skp2 + CG1103 | SID104201847 | 3.42e6 | 3.94e6 | 3.89e6 |
| CG8119 (GeneID 32500) | SID104199875 | 3.68e6 | 4.16e6 | 4.13e6 |
| Tret1-2 (GeneID 36249) | SID104186909 | 3.58e6 | 4.02e6 | 4.10e6 |
| Nhe3 (GeneID 33939) | SID104183172 | 3.47e6 | 3.95e6 | 3.91e6 |
| Cyp318a1 (GeneID 32172) | SID104199576 | 3.57e6 | 4.02e6 | 4.06e6 |
| CG32263 (GeneID 317944) | SID104201902 | 3.63e6 | 4.10e6 | 4.09e6 |
| Uba1 (GeneID 35998) | SID104187359 | 3.55e6 | 4.13e6 | 3.94e6 |
| CCKLR-17D1 (GeneID 32860) | SID104199802 | 3.57e6 | 4.07e6 | 4.01e6 |
| CCKLR-17D1 (GeneID 32860) | SID104199803 | 3.70e6 | 4.20e6 | 4.11e6 |
| CCKLR-17D1 (GeneID 32860) | SID104199804 | 3.53e6 | 4.04e6 | 3.98e6 |
| Atox1 (GeneID 326216) | SID104201889 | 3.57e6 | 4.02e6 | 4.05e6 |
| br (GeneID 44505) | SID104197483 | 3.47e6 | 3.96e6 | 3.93e6 |
| br (GeneID 44505) | SID104197581 | 3.61e6 | 4.13e6 | 4.06e6 |
| br (GeneID 44505) | SID104198535 | 3.32e6 | 3.78e6 | 3.78e6 |
| br (GeneID 44505) | SID104198536 | 3.26e6 | 3.74e6 | 3.75e6 |
| CG42326 (GeneID 35838) | SID104186275 | 3.56e6 | 3.98e6 | 4.07e6 |
| CG42326 (GeneID 35838) | SID104186276 | 3.50e6 | 3.99e6 | 3.96e6 |
| PolA2 (GeneID 43278) | SID104196433 | 3.45e6 | 4.02e6 | 3.76e6 |
| Diedel (GeneID 43474) | SID104194109 | 3.61e6 | 4.12e6 | 4.07e6 |
| CG15373 (GeneID 32784) | SID104199455 | 3.64e6 | 4.12e6 | 4.10e6 |
| CG3894 (GeneID 37959) | SID104181554 | 3.67e6 | 4.27e6 | 4.04e6 |
| CG3894 (GeneID 37959) | SID104183804 | 3.71e6 | 4.15e6 | 4.28e6 |
| CG3894 (GeneID 37959) | SID104184221 | 3.34e6 | 4.10e6 | 4.08e6 |
| BBS5 (GeneID 40600) | SID104191960 | 3.41e6 | 3.89e6 | 3.80e6 |
| CG6163 (GeneID 39274) | SID104190387 | 3.98e6 | 4.16e6 | 4.82e6 |
| Ent2 (GeneID 33921) | SID104181916 | 3.45e6 | 3.86e6 | 3.86e6 |
| Marf (GeneID 31581) | SID104198121 | 3.15e6 | 3.92e6 | 3.59e6 |
| CG33992 (retired record) + CG43755 | SID104179804 | 3.52e6 | 4.15e6 | 3.85e6 |
| CG13690 (GeneID 33213) | SID104180151 | 3.48e6 | 4.00e6 | 3.88e6 |
| Grx1 (GeneID 40053) | SID104190519 | 3.31e6 | 3.68e6 | 3.74e6 |
| GrlHz (GeneID 37648) | SID104184216 | 3.80e6 | 4.11e6 | 4.22e6 |
| mnd (GeneID 39625) | SID104191162 | 3.44e6 | 3.90e6 | 3.85e6 |
| CG11286 (GeneID 40919) | SID104194085 | 3.56e6 | 4.09e6 | 3.99e6 |
| Nepl13 (GeneID 42699) | SID104195424 | 3.76e6 | 4.23e6 | 4.29e6 |
| CG13426 (GeneID 37312) | SID104186180 | 3.42e6 | 4.00e6 | 3.72e6 |
| fan (GeneID 43926) | SID104190722 | 3.51e6 | 3.97e6 | 4.00e6 |
| fig (GeneID 43511) | SID104196062 | 3.48e6 | 4.09e6 | 3.76e6 |
| Acp32CD (GeneID 34531) | SID104181650 | 3.58e6 | 4.11e6 | 4.02e6 |
| Myo95E (GeneID 2768680) | SID104195613 | 3.48e6 | 3.98e6 | 3.92e6 |
| RYBP (GeneID 37601) | SID104183909 | 3.55e6 | 4.08e6 | 4.03e6 |
| CG31559 (GeneID 40749) | SID104191964 | 3.48e6 | 3.97e6 | 3.93e6 |
| CG31559 (GeneID 40749) | SID104192062 | 3.62e6 | 4.22e6 | 3.98e6 |

Already shown: entries from further up.
| predicted target | PubChem SID | mean viability with MMS | viability with MMS, replicate 1 | viability with MMS, replicate 2 |
| --- | --- | --- | --- | --- |
| mRpS9 (GeneID 40932) | SID104192437 | 3.79e6 | 4.01e6 | 4.43e6 |
| mRpS9 (GeneID 40932) | SID104195248 | 3.76e6 | 4.07e6 | 3.85e6 |
| Ugt303B1 (GeneID 42775) | SID104194933 | 3.41e6 | 3.79e6 | 3.90e6 |
| CG6830 (GeneID 41408) | SID104195916 | 3.48e6 | 3.99e6 | 3.94e6 |
| CG31522 (GeneID 40567) | SID104191797 | 3.58e6 | 4.05e6 | 4.07e6 |
| Fkbp12 (GeneID 37214) | SID104187217 | 3.64e6 | 4.11e6 | 4.11e6 |
| Skp2 + CG1103 | SID104191952 | 3.56e6 | 3.99e6 | 4.07e6 |
| Skp2 + CG1103 | SID104201847 | 3.42e6 | 3.94e6 | 3.89e6 |
| CG8119 (GeneID 32500) | SID104199875 | 3.68e6 | 4.16e6 | 4.13e6 |
| Tret1-2 (GeneID 36249) | SID104186909 | 3.58e6 | 4.02e6 | 4.10e6 |
| Nhe3 (GeneID 33939) | SID104183172 | 3.47e6 | 3.95e6 | 3.91e6 |
| Cyp318a1 (GeneID 32172) | SID104199576 | 3.57e6 | 4.02e6 | 4.06e6 |
